Results on one molecule are retold here after US6436660B1, “Identification of novel antimicrobial agents using metabolic oxidation-reduction indicator dyes” (XOMA Technology Ltd., priority 1999, dated 2002).

The test system of the assay is E. coli (ATCC strain 8739). Briefly: Effect of antibacterial compounds on bacteria with Alamar Blue (colorimetric OD595 assay). In kind it is cell-based.

As to `O=C(O)c1cn(C2CC2)c2cc(N3CCNCC3)c(F)cc2c1=O` [ciprofloxacin], the “characteristic pattern or "fingerprint": increased metabolic oxidation-reduction activity (Alamar Blue OD595) relative to untreated control cells” value (E. coli 5x10^7/mL, test compound two-fold dilutions from 64 μg/mL, readings 0-120 min, best seen at 30 min (FIG. 6)) is given as “did not show the “fingerprint.””. Also, the “characteristic "fingerprint" with metabolic oxidation-reduction indicator dye (statement on negative controls)” value (for bacteria, summary statement) was “do not exhibit the characteristic “fingerprint,””.
